This is one part of the list.
Columns and labels:
Experiment in all cases: log2 fold change, soluble protein after heating vs DMSO (PISA); higher = thermal stabilisation; K562 cells, 10 uM, 30 min; active = over 0.2 and 3.5 SD of the protein, either way, in both replicates (recomputed)
erlotinib = compound: C#Cc1cccc(Nc2ncnc3cc(OCCOC)c(OCCOC)cc23)c1 [erlotinib]
In short: (§1)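 Soluble protein was defined as the supernatant after 21,000xg for 90 min. It came from K562 cells at 2×10^6 cells/mL given 10 μM compound for 30 min, heated in aliquots for 3 min across 48°C-58°C, pooled, and extracted in PBS with 0.5% NP-40 at 4°C, and was quantified by TMTpro 16plex LC-MS/MS with equalised channel sums. Thermal stability against control samples, from duplicates, is reported as log2 fold change.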

Protein sequences, listed by entry. Tags and fused reporters are not part of them. Lines headed by an entry give the natural chain unless they say otherwise; changes in a name come on top.
UniProt Q8TB37: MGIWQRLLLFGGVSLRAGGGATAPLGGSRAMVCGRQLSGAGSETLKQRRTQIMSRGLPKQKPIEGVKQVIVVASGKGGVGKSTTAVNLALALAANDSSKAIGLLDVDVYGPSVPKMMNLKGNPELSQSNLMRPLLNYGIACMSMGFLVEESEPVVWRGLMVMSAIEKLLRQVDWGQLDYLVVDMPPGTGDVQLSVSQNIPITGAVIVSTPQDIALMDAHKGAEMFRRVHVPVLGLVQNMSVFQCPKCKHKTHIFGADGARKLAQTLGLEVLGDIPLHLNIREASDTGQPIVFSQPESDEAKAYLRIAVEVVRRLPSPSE
UniProt Q96E52: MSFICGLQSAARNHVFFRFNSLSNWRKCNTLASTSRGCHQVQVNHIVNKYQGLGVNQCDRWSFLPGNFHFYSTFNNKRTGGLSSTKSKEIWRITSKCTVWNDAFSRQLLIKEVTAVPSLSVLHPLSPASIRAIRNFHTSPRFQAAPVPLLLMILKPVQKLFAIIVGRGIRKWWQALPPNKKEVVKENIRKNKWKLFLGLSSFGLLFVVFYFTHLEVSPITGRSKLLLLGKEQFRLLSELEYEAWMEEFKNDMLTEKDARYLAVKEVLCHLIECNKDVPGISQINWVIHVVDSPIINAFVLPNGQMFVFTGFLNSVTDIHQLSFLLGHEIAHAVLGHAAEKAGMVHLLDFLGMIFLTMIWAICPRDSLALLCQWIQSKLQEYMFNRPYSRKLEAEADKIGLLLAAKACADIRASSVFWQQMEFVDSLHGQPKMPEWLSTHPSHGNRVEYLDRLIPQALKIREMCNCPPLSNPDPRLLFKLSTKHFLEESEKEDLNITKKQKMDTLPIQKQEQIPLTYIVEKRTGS
UniProt Q9NRP0: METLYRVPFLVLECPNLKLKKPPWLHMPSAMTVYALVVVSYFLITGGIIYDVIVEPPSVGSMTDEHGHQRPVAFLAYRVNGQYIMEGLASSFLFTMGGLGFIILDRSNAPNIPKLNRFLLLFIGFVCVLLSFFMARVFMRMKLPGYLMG
UniProt Q9H6K4: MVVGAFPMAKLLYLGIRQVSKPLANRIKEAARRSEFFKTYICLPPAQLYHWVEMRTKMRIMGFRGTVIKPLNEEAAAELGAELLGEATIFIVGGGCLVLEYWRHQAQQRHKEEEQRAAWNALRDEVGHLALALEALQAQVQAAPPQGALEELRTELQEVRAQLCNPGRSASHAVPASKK
UniProt P55809: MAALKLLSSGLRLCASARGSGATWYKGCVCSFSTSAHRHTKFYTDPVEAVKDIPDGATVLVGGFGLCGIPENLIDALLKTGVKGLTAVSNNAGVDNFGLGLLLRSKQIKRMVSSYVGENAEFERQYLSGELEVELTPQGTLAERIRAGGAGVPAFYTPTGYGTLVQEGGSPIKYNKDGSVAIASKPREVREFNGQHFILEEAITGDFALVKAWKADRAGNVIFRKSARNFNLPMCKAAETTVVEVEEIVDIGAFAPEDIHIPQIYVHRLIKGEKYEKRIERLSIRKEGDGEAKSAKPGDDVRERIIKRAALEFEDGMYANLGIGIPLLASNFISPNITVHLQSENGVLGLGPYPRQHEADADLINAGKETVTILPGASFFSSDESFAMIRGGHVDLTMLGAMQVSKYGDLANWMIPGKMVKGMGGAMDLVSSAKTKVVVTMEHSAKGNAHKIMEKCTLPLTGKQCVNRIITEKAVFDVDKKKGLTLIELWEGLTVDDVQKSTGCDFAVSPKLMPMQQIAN
UniProt Q9BV86: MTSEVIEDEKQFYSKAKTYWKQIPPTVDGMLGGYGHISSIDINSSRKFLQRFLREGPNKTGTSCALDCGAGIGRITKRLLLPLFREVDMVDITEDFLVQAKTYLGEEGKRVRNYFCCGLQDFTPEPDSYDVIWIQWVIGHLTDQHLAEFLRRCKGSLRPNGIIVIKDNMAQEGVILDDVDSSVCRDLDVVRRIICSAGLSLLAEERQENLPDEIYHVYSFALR
UniProt P53384: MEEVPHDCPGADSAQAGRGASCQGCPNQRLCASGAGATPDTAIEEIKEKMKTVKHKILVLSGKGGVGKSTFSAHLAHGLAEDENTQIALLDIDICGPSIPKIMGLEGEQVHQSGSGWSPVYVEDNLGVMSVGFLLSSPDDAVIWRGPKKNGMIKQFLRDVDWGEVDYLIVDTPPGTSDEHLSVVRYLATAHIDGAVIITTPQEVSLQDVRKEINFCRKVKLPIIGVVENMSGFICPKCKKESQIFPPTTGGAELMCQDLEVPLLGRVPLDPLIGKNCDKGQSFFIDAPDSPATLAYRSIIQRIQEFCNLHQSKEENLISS
UniProt Q8N573: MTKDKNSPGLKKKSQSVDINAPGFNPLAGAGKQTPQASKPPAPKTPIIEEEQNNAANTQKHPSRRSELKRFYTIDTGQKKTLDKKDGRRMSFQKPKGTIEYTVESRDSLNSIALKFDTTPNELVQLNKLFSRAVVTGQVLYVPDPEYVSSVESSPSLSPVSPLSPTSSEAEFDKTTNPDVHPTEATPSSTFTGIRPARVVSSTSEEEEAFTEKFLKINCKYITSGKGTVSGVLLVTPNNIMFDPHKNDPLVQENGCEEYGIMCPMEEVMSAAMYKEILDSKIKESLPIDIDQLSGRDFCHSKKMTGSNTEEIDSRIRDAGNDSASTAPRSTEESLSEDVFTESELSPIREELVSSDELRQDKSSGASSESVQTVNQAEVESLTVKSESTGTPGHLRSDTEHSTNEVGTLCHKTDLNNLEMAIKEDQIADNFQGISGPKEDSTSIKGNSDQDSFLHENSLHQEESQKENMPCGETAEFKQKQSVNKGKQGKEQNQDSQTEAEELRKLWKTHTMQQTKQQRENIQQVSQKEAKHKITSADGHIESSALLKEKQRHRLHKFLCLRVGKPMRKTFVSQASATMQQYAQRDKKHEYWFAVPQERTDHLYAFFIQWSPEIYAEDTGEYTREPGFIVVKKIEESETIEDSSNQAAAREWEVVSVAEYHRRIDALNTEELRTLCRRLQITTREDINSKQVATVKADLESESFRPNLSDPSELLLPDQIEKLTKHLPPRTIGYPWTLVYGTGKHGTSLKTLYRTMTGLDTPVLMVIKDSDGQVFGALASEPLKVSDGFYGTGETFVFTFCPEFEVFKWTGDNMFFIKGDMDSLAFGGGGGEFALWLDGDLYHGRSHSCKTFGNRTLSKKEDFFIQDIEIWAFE
UniProt Q9BW91: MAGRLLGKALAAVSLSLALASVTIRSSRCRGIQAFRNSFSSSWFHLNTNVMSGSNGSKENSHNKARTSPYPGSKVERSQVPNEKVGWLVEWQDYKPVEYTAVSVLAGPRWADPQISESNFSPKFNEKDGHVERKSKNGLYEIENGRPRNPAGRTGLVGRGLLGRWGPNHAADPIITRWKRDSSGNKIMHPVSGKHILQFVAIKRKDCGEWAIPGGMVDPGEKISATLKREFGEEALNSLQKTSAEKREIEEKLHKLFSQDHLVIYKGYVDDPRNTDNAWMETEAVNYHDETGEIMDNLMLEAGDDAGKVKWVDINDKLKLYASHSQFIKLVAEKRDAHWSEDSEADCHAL
UniProt O15504: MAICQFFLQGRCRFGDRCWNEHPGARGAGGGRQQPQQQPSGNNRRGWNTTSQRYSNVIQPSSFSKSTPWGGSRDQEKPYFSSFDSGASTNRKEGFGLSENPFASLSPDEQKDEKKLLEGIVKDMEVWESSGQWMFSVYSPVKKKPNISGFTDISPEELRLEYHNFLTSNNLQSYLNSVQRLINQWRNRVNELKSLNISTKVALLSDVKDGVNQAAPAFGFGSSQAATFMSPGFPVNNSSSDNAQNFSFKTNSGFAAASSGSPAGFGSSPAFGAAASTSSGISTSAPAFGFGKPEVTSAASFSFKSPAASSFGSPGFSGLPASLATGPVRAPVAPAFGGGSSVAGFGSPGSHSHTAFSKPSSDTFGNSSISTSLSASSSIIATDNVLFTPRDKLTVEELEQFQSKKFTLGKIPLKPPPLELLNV
UniProt P61970, whole entry, looked up: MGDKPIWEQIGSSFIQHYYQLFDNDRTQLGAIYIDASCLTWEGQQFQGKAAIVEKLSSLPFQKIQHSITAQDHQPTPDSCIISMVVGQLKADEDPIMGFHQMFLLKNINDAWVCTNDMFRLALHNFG
UniProt Q9NTK5, whole entry, looked up: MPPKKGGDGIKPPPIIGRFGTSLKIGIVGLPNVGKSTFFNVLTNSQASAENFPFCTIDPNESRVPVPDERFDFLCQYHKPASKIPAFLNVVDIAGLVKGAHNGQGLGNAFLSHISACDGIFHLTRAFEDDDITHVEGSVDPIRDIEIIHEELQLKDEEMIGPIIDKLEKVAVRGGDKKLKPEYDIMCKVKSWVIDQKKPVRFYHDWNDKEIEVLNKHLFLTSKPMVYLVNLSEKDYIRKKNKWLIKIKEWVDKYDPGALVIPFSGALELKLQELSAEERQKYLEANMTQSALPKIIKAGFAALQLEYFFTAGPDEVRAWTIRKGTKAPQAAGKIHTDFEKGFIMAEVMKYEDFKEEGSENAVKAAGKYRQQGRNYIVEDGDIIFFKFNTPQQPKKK
UniProt Q99567: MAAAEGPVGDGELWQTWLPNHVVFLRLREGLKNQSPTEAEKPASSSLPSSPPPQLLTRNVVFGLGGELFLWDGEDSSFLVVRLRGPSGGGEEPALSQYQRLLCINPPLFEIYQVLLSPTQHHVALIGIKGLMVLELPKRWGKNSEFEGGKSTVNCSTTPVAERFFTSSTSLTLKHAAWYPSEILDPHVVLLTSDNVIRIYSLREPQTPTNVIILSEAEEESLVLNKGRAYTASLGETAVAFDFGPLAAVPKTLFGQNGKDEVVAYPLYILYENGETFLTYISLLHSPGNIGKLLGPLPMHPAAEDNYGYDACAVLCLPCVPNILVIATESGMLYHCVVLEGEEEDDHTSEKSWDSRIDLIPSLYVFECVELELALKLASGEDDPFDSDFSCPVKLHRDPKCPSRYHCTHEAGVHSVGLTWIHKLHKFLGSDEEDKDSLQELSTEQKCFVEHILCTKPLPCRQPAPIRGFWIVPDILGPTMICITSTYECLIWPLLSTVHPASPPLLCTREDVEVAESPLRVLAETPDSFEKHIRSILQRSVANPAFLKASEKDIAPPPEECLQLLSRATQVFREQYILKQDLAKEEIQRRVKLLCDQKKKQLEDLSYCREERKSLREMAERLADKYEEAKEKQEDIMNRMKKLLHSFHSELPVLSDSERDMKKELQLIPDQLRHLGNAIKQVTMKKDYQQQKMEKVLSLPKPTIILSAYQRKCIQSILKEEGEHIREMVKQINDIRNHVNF
UniProt Q9H1E3: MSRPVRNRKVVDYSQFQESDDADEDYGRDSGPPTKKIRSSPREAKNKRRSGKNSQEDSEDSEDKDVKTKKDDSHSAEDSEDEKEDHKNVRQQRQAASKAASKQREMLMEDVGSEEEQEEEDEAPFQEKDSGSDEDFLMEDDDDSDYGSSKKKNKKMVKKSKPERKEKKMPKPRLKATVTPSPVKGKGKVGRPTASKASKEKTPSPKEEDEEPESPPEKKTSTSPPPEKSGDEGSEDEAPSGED
UniProt Q8WUM0: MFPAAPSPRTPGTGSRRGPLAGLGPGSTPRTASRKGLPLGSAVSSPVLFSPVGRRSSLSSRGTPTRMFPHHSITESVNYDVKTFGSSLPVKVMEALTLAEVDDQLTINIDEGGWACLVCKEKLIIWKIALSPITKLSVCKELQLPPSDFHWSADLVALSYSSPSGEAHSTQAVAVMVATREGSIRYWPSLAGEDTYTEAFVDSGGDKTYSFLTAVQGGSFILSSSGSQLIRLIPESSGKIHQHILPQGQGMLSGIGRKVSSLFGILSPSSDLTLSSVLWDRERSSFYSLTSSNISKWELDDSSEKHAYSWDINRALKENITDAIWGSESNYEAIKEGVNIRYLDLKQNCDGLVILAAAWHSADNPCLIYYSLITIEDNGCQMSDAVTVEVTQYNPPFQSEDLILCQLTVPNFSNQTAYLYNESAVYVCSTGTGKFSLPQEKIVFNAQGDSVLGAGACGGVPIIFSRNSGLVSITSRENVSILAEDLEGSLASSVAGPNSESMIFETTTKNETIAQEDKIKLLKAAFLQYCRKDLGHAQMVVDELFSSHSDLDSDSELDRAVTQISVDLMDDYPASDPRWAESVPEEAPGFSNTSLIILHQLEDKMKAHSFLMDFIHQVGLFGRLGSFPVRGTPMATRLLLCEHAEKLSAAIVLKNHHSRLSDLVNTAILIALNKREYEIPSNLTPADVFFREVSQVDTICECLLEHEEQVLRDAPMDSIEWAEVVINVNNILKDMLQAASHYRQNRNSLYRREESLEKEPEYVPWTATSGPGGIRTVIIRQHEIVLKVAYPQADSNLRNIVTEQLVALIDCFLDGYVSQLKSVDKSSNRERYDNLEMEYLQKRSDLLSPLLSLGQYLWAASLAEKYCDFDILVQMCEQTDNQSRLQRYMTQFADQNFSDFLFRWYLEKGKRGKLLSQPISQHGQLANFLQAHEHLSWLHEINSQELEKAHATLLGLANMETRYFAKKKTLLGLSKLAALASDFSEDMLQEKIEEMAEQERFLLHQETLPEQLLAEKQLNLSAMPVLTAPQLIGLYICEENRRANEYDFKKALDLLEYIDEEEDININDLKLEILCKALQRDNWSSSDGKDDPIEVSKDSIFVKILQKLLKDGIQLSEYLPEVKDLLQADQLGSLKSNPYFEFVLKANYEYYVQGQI

[1] = compound: C/C(=N\NC(=O)C1=CC(=CC=C1)S(=O)(=O)N2CCOCC2)/C3=C(C=CC(=C3)Cl)O
In short: as §1

[2] = compound: C1=CC(=C(C=C1Cl)C2=NC3=NC=CN=C3C(=N2)NC4=CC=NC=C4)F
In short: as §1

[3] = compound: C1=CC(=CC=C1C2=NC3=C(N2)C=C(C=C3)C(=O)N)OC4=CC=C(C=C4)Cl
In short: as §1

[4] = compound: C1=CC2=C(C=CC(=C2)/C=C\3/C(=O)NC(=NCC4=CC=CS4)S3)N=C1
In short: as §1

[5] = compound: C1=CC2=NC=CN=C2C=C1/C=C/3\C(=O)NC(=O)S3
In short: as §1

[6] = compound: C1=CC=C(C=C1)C2=NC(=C(N2)C3=CC=NC=C3)C4=CC(=C(C=C4)Cl)O
In short: as §1

[7] = compound: C1=CC=C2C(=C1)C3=NNC4=CC=CC(=C43)C2=O
In short: as §1

[8] = compound: C1CCN(C1)C(=O)NC2=CC=CC(=C2)NC3=NC=C(C(=N3)NCCC4=CN=CN4)Br
In short: as §1

[9] = compound: C1CN(CCC1(CC2=CC=C(C=C2)Cl)N)C3=NC=NC4=C3C=CN4
In short: as §1

Measured: log2 fold change

NT5C2 (UniProt P49902)
inactive: erlotinib 0.007 | [1] 0.011 | [2] 0.051 | [3] 0.022 | [4] 0.02 | [5] 0.031 | [6] -0.015 | [7] -0.009 | [8] -0.007 | [9] 0.075

OXA1L (UniProt Q15070)
inactive: erlotinib -0.014 | [1] 0.029 | [2] -0.005 | [3] 0.012 | [4] 0.01 | [5] 0.021 | [6] 0.006 | [7] -0.029 | [8] 0.012 | [9] 0.043

NUBPL (UniProt Q8TB37)
inactive: erlotinib -0.036 | [1] 0.048 | [2] -0.029 | [3] 0.027 | [4] -0.012 | [5] 0.036 | [6] -0.031 | [7] -0.001 | [8] -0.077 | [9] 0.037

OXSR1 (UniProt O95747)
inactive: erlotinib 0.042 | [1] 0.091 | [2] -0.024 | [3] -0.056 | [4] 0.106 | [5] 0.004 | [6] 0.039 | [7] 0.054 | [8] -0.008 | [9] 0.007

OMA1 (UniProt Q96E52)
inactive: erlotinib 0.077 | [1] 0.029 | [2] 0.051 | [3] 0.019 | [4] 0.042 | [5] 0.133 | [6] 0.026 | [7] -0.027 | [8] -0.148 | [9] 0.094

OSTC (UniProt Q9NRP0)
inactive: erlotinib 0.021 | [1] 0.024 | [2] 0.022 | [3] 0.017 | [4] 0.004 | [5] -0.001 | [6] 0.014 | [7] 0.048 | [8] -0.041 | [9] 0.088

OPA3 (UniProt Q9H6K4)
inactive: erlotinib 0.054 | [1] -0.052 | [2] 0.029 | [3] 0.065 | [4] 0.005 | [5] -0.031 | [6] 0.173 | [7] -0.061 | [8] 0.021 | [9] 0.029

NUDCD1 (UniProt Q96RS6)
inactive: erlotinib 0.024 | [1] 0.066 | [2] 0.067 | [3] -0.005 | [4] 0.02 | [5] 0.026 | [6] -0.013 | [7] -0.01 | [8] -0.016 | [9] 0.016

OPLAH (UniProt O14841)
inactive: erlotinib 0.005 | [1] 0.04 | [2] 0.025 | [3] 0.001 | [4] 0.058 | [5] -0.016 | [6] 0.011 | [7] 0.012 | [8] 0.006 | [9] 0.044

OXCT1 (UniProt P55809)
inactive: erlotinib -0.023 | [1] 0.049 | [2] 0.117 | [3] -0.044 | [4] 0.014 | [5] 0.06 | [6] 0 | [7] 0.027 | [8] 0.019 | [9] 0.036

NUP155 (UniProt O75694)
inactive: erlotinib 0.022 | [1] 0.108 | [2] 0.013 | [3] 0.018 | [4] 0.03 | [5] 0.014 | [6] 0.062 | [7] -0.076 | [8] 0.005 | [9] -0.037

NTMT1 (UniProt Q9BV86)
inactive: erlotinib 0.039 | [1] 0.13 | [2] 0.086 | [3] 0.002 | [4] 0.039 | [5] 0.032 | [6] 0.006 | [7] 0.086 | [8] -0.101 | [9] 0.151

NUBP1 (UniProt P53384)
inactive: erlotinib 0.169 | [1] 0.045 | [2] 0.049 | [3] 0.003 | [4] 0.069 | [5] 0.02 | [6] -0.003 | [7] 0.037 | [8] 0.002 | [9] -0.014

OXR1 (UniProt Q8N573)
inactive: erlotinib 0.029 | [1] 0.067 | [2] 0.011 | [3] 0.002 | [4] 0.023 | [5] 0.007 | [6] -0.043 | [7] -0.062 | [8] -0.03 | [9] 0.056

NUDT9 (UniProt Q9BW91)
inactive: erlotinib -0.047 | [1] 0.111 | [2] 0.027 | [3] 0.085 | [4] 0.033 | [5] 0.049 | [6] -0.029 | [7] -0.009 | [8] 0.037 | [9] -0.009

PABPC1 (UniProt P11940)
inactive: erlotinib -0.133 | [1] -0.006 | [2] -0.152 | [3] 0.088 | [4] -0.045 | [5] 0.002 | [6] -0.062 | [7] -0.098 | [8] 0.052 | [9] -0.077

NUP42 (UniProt O15504)
inactive: erlotinib -0.096 | [1] -0.004 | [2] -0.722 | [3] 0.128 | [4] -0.147 | [5] -0.16 | [6] -0.003 | [7] -0.098 | [8] 0.189 | [9] 0.137

NUP98 (UniProt P52948)
inactive: erlotinib 0.063 | [1] 0.01 | [2] -0.085 | [3] -0.013 | [4] -0.011 | [5] 0.035 | [6] -0.015 | [7] -0.217 | [8] -0.06 | [9] -0.012

NUP37 (UniProt Q8NFH4)
inactive: erlotinib 0.004 | [1] 0.056 | [2] 0.05 | [3] -0.029 | [4] 0.014 | [5] 0.017 | [6] -0.013 | [7] -0.065 | [8] -0.043 | [9] -0.027

NUTF2 (UniProt P61970)
inactive: erlotinib -0.064 | [1] 0.1 | [2] 0.012 | [3] 0.028 | [4] 0.079 | [5] 0.032 | [6] 0.105 | [7] -0.001 | [8] -0.077 | [9] -0.064

NUDCD3 (UniProt Q8IVD9)
inactive: erlotinib 0.037 | [1] 0.089 | [2] 0.038 | [3] 0.007 | [4] 0.025 | [5] 0.027 | [6] 0.024 | [7] 0 | [8] -0.02 | [9] -0.029

OCRL (UniProt Q01968)
inactive: erlotinib 0.034 | [1] 0.009 | [2] -0.107 | [3] -0.173 | [4] 0.038 | [5] -0.006 | [6] 0.029 | [7] -0.053 | [8] 0.049 | [9] -0.027

NUFIP2 (UniProt Q7Z417)
inactive: erlotinib -0.056 | [1] -0.063 | [2] -0.163 | [3] 0.018 | [4] -0.035 | [5] -0.008 | [6] -0.023 | [7] -0.037 | [8] 0.048 | [9] 0.009

OLA1 (UniProt Q9NTK5)
inactive: erlotinib -0.037 | [1] 0.046 | [2] 0.056 | [3] -0.015 | [4] 0.01 | [5] 0.01 | [6] -0.007 | [7] 0.018 | [8] -0.014 | [9] 0.019

NUP88 (UniProt Q99567)
inactive: erlotinib 0.018 | [1] 0.021 | [2] -0.09 | [3] -0.003 | [4] -0.005 | [5] 0.039 | [6] -0.091 | [7] 0 | [8] 0.012 | [9] -0.103

NSUN4 (UniProt Q96CB9)
inactive: erlotinib 0.051 | [1] -0.013 | [2] -0.049 | [3] 0.151 | [4] -0.035 | [5] -0.012 | [6] -0.036 | [7] 0.045 | [8] -0.01 | [9] -0.065

Two entries drawn at random from the list so far, as already listed:
NUP88 (UniProt Q99567)
inactive: erlotinib 0.018 | [1] 0.021 | [2] -0.09 | [3] -0.003 | [4] -0.005 | [5] 0.039 | [6] -0.091 | [7] 0 | [8] 0.012 | [9] -0.103

OCRL (UniProt Q01968)
inactive: erlotinib 0.034 | [1] 0.009 | [2] -0.107 | [3] -0.173 | [4] 0.038 | [5] -0.006 | [6] 0.029 | [7] -0.053 | [8] 0.049 | [9] -0.027

(next part)

NUCKS1 (UniProt Q9H1E3)
inactive: erlotinib 0.045 | [1] -0.098 | [2] -0.002 | [3] -0.029 | [4] -0.052 | [5] 0 | [6] -0.089 | [7] 0.033 | [8] 0.067 | [9] -0.002

NUP133 (UniProt Q8WUM0)
inactive: erlotinib -0.003 | [1] -0.015 | [2] -0.135 | [3] -0.028 | [4] -0.052 | [5] 0.077 | [6] -0.039 | [7] -0.194 | [8] -0.01 | [9] -0.052

OPTN (UniProt Q96CV9)
inactive: erlotinib 0.08 | [1] -0.036 | [2] 0.168 | [3] -0.03 | [4] 0.014 | [5] 0.213 | [6] 0.093 | [7] -0.007 | [8] -0.049 | [9] 0.028

NVL (UniProt O15381)
inactive: [5] -0.124 | [6] -0.028
